Results taken from PMC5829230, “G-protein βγ subunits determine grain size through interaction with MADS-domain transcription factors in rice”.

System: GST-OsMADS1lgy3 (Oryza sativa)
Experiment: EMSA
Details: affinity stated unaffected by C domain variation, 10x and 50x unlabeled probe as competitor; LightShift Chemiluminescent EMSA Kit (Thermo 20148); pH and temperature not stated; recombinant protein; protein details: N-terminal GST (pGEX-4T-1); label: biotin

**Q.** Does “AGGCAGTATCTATCTATTTATTGCGTATAAACTAAAT (double strand) [MADS55-EMSA-probe]” bind?
**A.** Result: binds

For at least one entry, the source does not settle the construct or the ends of the probe.
